Here are results for four molecules from paper PMC9061724.

Sequences of proteins named here, by UniProt entry; tags and fusion partners are left off. A change or cut given only in a name is not applied to a line headed by its entry.
UniProt Q14160: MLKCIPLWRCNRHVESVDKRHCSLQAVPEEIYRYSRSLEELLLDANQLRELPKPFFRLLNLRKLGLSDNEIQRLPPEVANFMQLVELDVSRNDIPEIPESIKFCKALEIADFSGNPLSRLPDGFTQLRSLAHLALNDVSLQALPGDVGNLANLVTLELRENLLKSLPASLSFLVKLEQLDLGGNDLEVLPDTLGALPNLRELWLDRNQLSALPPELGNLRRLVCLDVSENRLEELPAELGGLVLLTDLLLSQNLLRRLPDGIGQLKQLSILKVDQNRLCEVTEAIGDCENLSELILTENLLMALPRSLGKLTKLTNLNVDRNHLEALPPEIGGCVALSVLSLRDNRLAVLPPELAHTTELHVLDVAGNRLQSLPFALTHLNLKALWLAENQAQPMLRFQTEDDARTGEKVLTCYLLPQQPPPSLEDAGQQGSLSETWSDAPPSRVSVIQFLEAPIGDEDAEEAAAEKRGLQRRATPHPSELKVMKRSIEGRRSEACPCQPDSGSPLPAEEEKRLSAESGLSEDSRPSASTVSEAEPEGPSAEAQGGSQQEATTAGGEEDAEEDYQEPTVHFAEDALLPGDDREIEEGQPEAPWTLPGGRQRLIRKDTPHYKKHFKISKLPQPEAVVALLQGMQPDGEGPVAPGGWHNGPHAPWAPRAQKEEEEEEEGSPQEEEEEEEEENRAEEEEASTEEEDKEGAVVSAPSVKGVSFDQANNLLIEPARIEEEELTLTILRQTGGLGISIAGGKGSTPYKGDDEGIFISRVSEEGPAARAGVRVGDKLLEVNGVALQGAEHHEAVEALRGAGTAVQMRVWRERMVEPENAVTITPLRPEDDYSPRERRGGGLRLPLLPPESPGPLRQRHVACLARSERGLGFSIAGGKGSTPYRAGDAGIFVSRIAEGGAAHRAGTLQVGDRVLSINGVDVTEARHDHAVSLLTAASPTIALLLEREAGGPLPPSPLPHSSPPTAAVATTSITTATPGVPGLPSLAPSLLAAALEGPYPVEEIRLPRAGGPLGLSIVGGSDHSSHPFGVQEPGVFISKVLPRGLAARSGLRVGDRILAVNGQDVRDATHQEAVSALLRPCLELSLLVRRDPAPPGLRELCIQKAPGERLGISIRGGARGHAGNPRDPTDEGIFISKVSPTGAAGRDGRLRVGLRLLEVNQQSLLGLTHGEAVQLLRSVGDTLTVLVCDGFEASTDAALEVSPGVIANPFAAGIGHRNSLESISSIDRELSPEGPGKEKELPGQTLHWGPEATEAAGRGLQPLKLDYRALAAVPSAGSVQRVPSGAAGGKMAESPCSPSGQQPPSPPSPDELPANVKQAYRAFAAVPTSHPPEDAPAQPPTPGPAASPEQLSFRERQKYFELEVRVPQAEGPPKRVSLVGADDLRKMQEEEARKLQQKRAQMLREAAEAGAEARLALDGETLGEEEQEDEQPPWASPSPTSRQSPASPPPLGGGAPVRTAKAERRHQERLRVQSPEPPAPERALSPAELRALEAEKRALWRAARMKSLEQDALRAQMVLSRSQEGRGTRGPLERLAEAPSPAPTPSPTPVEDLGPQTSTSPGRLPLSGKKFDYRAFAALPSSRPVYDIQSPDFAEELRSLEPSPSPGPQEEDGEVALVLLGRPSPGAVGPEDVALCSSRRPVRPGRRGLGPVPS
UniProt Q01650: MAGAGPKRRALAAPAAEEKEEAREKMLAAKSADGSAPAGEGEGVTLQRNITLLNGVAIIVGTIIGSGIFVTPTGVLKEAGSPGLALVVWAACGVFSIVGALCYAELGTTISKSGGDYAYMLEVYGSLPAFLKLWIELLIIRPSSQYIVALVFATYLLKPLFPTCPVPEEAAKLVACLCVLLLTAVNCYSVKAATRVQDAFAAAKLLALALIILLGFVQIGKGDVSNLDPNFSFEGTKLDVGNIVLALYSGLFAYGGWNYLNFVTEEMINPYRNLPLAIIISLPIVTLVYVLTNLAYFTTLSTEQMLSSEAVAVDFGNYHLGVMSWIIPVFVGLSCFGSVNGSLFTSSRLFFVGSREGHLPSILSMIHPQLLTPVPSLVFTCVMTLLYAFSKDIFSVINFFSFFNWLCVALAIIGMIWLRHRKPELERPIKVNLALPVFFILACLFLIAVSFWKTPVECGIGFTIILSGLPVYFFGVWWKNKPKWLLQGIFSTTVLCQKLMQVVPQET

The target in assay [1] is SLC3A2 (human (endogenous in MCF-7)) (UniProt P08195). Put plainly: co-IP; endogenous proteins, MCF-7 lysate (1% Brij-35, 100 mM NaCl, pH 7.4), anti-SLC3A2 antibody, Protein G beads, western blot.
The target in assay [2] is SCRIB-P305L expressed in MCF-7 cells (UniProt Q14160). Description: co-IP; wild-type and P305L SCRIB expressed in MCF-7 cells, immunoprecipitation of SCRIB, western blot. (A western blot detects proteins with antibodies after separation by electrophoresis.)
For assay [3], the target named is wild-type SCRIB expressed in MCF-7 cells (UniProt Q14160). Described as above.
For assay [4], the target named is SLC7A5 (human (endogenous in MCF-7)) (UniProt Q01650). Put plainly: co-IP; endogenous proteins, MCF-7 lysate (parental and SLC3A2-knockdown cells), anti-SLC7A5 antibody, Protein G beads, western blot.
The target of assay [5] is HA-SCRIB (wild type), in HEK293T (UniProt Q14160). Put plainly: co-IP; HEK293T transfected with indicated vectors, 48 h, anti-HA antibody, Protein G beads, western blot.
The target of a further assay is SCRIB-P305L, in HEK293T (UniProt Q14160). Described as above.

Results are given in words; binding and its absence hold for the method and conditions named. In cells and extracts the contact can be indirect. Some binding calls cover weakened binding; strength is not graded here.

Take SCRIB (from UniProt Q14160 1-1655): the binding result in assay [1] was “binds”.

As for SLC3A2 (from UniProt P08195 1-529), the binding entry in assay [2], in assay [3] and in assay [4] was “binds” each time.

Turning to “wild-type SLC3A2, in HEK293T (from UniProt P08195 1-529)”, the binding result in assay [5] is given as “binds”; with SCRIB-P305L, in HEK293T, “binds”.

B1: LLGL2 (protein, UniProt Q6P1M3 1-1020)
chain: MRRFLRPGHDPVRERLKRDLFQFNKTVEHGFPHQPSALGYSPSLRILAIGTRSGAIKLYGAPGVEFMGLHQENNAVTQIHLLPGQCQLVTLLDDNSLHLWSLKVKGGASELQEDESFTLRGPPGAAPSATQITVVLPHSSCELLYLGTESGNVFVVQLPAFRALEDRTISSDAVLQRLPEEARHRRVFEMVEALQEHPRDPNQILIGYSRGLVVIWDLQGSRVLYHFLSSQQLENIWWQRDGRLLVSCHSDGSYCQWPVSSEAQQPEPLRSLVPYGPFPCKAITRILWLTTRQGLPFTIFQGGMPRASYGDRHCISVIHDGQQTAFDFTSRVIGFTVLTEADPAATFDDPYALVVLAEEELVVIDLQTAGWPPVQLPYLASLHCSAITCSHHVSNIPLKLWERIIAAGSRQNAHFSTMEWPIDGGTSLTPAPPQRDLLLTGHEDGTVRFWDASGVCLRLLYKLSTVRVFLTDTDPNENFSAQGEDEWPPLRKVGSFDPYSDDPRLGIQKIFLCKYSGYLAVAGTAGQVLVLELNDEAAEQAVEQVEADLLQDQEGYRWKGHERLAARSGPVRFEPGFQPFVLVQCQPPAVVTSLALHSEWRLVAFGTSHGFGLFDHQQRRQVFVKCTLHPSDQLALEGPLSRVKSLKKSLRQSFRRMRRSRVSSRKRHPAGPPGEAQEGSAKAERPGLQNMELAPVQRKIEARSAEDSFTGFVRTLYFADTYLKDSSRHCPSLWAGTNGGTIYAFSLRVPPAERRMDEPVRAEQAKEIQLMHRAPVVGILVLDGHSVPLPEPLEVAHDLSKSPDMQGSHQLLVVSEEQFKVFTLPKVSAKLKLKLTALEGSRVRRVSVAHFGSRRAEDYGEHHLAVLTNLGDIQVVSLPLLKPQVRYSCIRREDVSGIASCVFTKYGQGFYLISPSEFERFSLSTKWLVEPRCLVDSAETKNHRPGNGAGPKKAPSRARNSGTQSDGEEKQPGLVMERALLSDERVLKEIQSTLEGDRGSGNWRSHRAAVGCSLSNGGAE
On to B1, for which the binding entry in assay [4] is listed as “binds”.
